PubChem BioAssay AID720710 – VTT Finland – 2013
Shown is a random part of about 1,380 reagents tested. 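One array per condition without replicates; hydroxyurea arrays received 2 mM for 16 h plus 3 h recovery.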 Reagents against one gene are numbered here. Further read-outs or replicates are left out here.

- Purpose: 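Genes whose loss lowers DNA synthesis when an oncogene drives replication stress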 (primary screen)
- Cell system: human U-2 OS bone cancer cells, parental and a cyclin E (CCNE1) overexpressing line
- Reagent: single siRNA against human genes, 1 µM siRNA in the printed spot mix
- Duration: 67 h
- Conditions: half the arrays: hydroxyurea 2 mM for 16 h, then 3 h recovery; other arrays untreated
- Read-out: 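DNA synthesis measured as imaged EdU uptake per nucleus (DAPI) at 67 h, normalised to subgrid median and given as z-score versus non-targeting controls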
- Direction: EdU z-score, cyclin E line, hydroxyurea: higher = more DNA synthesis than non-targeting controls

EdU z-score, cyclin E line, hydroxyurea, by gene and reagent
SETMAR: #1 -1.64; #2 0.5
H1-2: #1 -1.73; #2 -1.02
BRCA1: #1 -0.232; #2 -0.189
TAF6L: #1 -1.11; #2 0.0399
TNKS: #1 -2.55; #2 0.677
MPZ: #1 -0.823; #2 1.46
TIMELESS: #1 -0.111; #2 -0.00676
GTF2H4: #1 -2.6; #2 -1.45
NPM1: #1 -2.45; #2 0.718
GML: #1 -1.08; #2 0.868
CDK7: #1 -0.661; #2 -0.643
PARP3: #1 0.285; #2 0.987
POLI: #1 -1.03; #2 -0.781
HDAC9: #1 -2.74; #2 -0.121
H4C15: #1 1.05; #2 1.43
POLE: #1 -0.651; #2 1.16
PPL: #1 0.514; #2 0.762
FANCF: #1 -0.51; #2 0.27
PRKCG: #1 -1.27; #2 -0.648
LOC728340: #1 -0.614; #2 0.615
NF2: #1 0.0643; #2 0.176
PCGF3: #1 -0.0223; #2 0.853
FANCM: #1 -1.71; #2 -0.788
NCOA6: #1 -2.13; #2 1.3
SPHAR (retired record): #1 0.522; #2 1.57
POLRMT: #1 -0.0995; #2 0.545
ESPL1: #1 -1.34; #2 1.24
CRY1: #1 -0.603; #2 1.2
NOL8: #1 -1.68; #2 -0.383

Targets listed so far whose target name begins with M or m (2):
EdU z-score, cyclin E line, hydroxyurea, by gene and reagent
MPZ: #1 -0.823; #2 1.46
